Results from article PMC8168955.
Residue numbers refer to the chain shown, from its start. Results are given in words; binding and its absence hold for the method and conditions named. In cells and extracts the contact can be indirect. Some binding calls cover weakened binding; strength is not graded here. Sequences can lack the tags named with a protein.

Sequences of proteins named here, by UniProt entry; tags and fusion partners are left off.
UniProt Q86TI2: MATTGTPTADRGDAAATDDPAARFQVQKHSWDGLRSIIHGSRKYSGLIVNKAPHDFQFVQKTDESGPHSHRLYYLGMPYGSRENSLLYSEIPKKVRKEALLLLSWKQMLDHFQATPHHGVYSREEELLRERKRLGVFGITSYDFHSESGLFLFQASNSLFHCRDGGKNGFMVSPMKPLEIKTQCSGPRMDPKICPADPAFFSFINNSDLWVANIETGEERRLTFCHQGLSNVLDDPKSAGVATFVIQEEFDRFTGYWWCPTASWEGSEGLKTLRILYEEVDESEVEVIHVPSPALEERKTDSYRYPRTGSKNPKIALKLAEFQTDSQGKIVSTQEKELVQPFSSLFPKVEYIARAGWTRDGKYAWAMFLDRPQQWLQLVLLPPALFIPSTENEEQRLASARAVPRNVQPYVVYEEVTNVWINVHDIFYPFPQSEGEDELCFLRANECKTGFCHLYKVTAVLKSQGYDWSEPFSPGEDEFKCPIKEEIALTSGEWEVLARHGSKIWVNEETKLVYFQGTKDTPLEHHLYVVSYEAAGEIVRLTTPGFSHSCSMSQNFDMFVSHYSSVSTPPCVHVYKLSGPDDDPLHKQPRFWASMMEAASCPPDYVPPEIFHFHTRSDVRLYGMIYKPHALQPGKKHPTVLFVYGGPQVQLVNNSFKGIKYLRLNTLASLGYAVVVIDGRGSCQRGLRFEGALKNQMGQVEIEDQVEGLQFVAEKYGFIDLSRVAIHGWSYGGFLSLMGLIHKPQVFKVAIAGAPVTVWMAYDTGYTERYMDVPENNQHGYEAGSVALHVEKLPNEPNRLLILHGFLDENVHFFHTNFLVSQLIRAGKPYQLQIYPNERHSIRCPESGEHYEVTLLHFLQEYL

Experiments:
Experiment in all cases: co-IP; anti-FLAG-M2-agarose precipitation of NLRP1-3xFLAG (WT or mutant) from HEK293T lysates in 1% NP40 lysis buffer with 150 mM NaCl, 4 hours or overnight at 4°C; DPP9 detected by immunoblot; in Fig 2B cells were treated with 2 μM Talabostat or dimethyl sulfoxide before harvest
[1] = biological target: T1, human NLRP1-3xFLAG A66V/M1184V (human) (UniProt Q9C000)
T1 sequence: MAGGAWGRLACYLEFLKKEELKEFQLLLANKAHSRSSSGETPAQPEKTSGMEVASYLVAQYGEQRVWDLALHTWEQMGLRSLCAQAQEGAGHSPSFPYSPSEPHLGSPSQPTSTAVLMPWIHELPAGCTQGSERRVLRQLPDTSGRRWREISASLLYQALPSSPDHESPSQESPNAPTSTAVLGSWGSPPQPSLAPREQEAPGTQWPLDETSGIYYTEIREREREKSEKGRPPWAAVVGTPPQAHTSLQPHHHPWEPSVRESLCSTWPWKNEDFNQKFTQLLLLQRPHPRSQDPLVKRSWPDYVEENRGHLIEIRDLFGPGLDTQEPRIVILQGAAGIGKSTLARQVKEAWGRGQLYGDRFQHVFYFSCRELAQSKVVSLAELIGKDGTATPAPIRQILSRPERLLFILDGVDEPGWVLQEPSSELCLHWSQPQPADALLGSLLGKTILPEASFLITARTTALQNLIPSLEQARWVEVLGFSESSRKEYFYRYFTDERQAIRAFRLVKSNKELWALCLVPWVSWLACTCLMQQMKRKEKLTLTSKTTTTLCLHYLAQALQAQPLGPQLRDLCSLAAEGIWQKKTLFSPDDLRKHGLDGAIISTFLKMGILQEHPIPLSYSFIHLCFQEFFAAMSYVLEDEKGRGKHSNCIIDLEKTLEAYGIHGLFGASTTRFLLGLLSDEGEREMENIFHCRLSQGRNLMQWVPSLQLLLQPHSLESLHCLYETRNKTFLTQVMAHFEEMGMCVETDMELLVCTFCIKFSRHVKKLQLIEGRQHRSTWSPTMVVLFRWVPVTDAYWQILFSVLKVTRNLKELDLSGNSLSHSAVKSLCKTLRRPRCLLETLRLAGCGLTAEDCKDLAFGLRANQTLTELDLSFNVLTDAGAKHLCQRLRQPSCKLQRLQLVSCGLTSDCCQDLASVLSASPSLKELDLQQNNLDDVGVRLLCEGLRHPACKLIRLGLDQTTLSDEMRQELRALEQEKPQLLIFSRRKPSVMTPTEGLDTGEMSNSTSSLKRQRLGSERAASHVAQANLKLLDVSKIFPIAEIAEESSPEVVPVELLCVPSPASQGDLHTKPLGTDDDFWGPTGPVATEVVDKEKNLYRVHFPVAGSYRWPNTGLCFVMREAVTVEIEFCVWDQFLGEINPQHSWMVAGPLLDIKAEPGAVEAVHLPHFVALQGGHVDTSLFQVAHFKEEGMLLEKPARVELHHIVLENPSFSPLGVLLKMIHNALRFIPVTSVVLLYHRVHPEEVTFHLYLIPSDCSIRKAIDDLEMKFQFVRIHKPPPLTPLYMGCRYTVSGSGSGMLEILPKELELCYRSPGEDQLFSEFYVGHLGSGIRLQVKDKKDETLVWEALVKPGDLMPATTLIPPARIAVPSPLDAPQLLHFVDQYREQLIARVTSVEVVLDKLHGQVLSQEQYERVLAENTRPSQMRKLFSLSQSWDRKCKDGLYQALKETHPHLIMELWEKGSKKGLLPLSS

[2] = biological target: T2, human NLRP1-3xFLAG M1184V (human) (UniProt Q9C000)
T2 sequence: T1 sequence with V66A

[3] = biological target: T3, human NLRP1-3xFLAG M1184V/P1214R (human) (UniProt Q9C000)
T3 sequence: T1 sequence with V66A, P1214R

[4] = biological target: T4, human NLRP1-3xFLAG A66V (human) (UniProt Q9C000)
T4 sequence: T1 sequence with V1184M

Measured: binding

dipeptidyl peptidase 9 (from UniProt Q86TI2 1-863) (enzyme)
binds: all assays above
